By UniProt entry, the sequences of proteins in these tests, tags left out. Where a name states a change or a piece, a line headed by the entry shows the natural chain unless it says otherwise.
UniProt Q61771: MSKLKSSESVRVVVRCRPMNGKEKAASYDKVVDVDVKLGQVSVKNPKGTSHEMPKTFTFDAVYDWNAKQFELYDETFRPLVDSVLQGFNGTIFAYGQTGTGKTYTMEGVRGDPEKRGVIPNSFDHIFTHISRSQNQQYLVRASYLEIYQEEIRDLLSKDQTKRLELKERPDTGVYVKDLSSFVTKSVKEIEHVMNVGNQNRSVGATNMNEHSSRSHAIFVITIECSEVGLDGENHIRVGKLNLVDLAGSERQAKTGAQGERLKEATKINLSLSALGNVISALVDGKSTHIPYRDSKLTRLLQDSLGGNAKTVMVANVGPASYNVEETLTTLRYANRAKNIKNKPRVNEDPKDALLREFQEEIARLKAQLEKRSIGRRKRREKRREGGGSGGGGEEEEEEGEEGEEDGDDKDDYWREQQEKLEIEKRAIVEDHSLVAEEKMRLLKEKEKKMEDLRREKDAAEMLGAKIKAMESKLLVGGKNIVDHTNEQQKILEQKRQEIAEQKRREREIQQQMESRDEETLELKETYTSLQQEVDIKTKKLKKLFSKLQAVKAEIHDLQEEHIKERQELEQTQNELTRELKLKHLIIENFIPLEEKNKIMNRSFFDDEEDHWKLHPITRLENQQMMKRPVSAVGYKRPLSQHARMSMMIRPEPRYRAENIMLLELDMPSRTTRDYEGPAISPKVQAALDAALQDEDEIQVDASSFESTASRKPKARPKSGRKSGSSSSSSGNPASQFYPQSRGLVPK
UniProt P62260: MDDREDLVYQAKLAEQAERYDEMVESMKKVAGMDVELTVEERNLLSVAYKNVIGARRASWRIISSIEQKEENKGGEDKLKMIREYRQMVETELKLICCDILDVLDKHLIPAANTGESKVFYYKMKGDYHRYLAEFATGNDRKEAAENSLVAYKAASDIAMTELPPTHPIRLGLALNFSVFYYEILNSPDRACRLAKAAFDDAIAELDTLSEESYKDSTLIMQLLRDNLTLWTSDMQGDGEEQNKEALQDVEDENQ

In doi:10.1101/2025.08.20.671056:

Target: GST-tagged recombinant tail domain of KIF3B (mouse) (UniProt Q61771)
Experiment: pull-down

binding: binds weakly
Substance: 14-3-3ε from rat brain extract (from UniProt P62260 1-255)

Results are given in words; binding and its absence hold for the method and conditions named. In cells and extracts the contact can be indirect. Binding can be weak; no strength is given.
